Experimental data from the supplement of paper PMC4635364.
Where a name gives a salt, the structure may show the parent alone. This is one part of the list. Repeats in this data set agree poorly, so a single value says little.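 Human fetal ventral-midbrain neural progenitor line ReNCell VM, differentiated without mitogens. Images stained for doublecortin (early neurons) or tyrosine hydroxylase (dopaminergic neurons) were scored by blinded raters against untreated wells (0 = no change). Repeats and both raters were averaged, and compounds averaging 2 or higher were picked as hits for retesting.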

Tested on: ReNCell VM
Assay: dopaminergic neuron differentiation score (TH+ cell fraction vs untreated, manual image score) (score (0 to 3)); higher = more TH+ dopaminergic neuron differentiation
Conditions: library: Prestwick; 2 uM; 4 weeks; BDNF 10 ng/ml + GDNF 10 ng/ml

Dopaminergic neuron differentiation score, inactive:
Cc1cc(/C=C/c2ccc3cc(N(C)C)ccc3[n+]2C)c(C)n1-c1ccccc1 [Pyrvinium pamoate] 0, COc1ccc(CC(C)NCC(O)c2ccc(O)c(NC=O)c2)cc1 (stereo not drawn) [Formoterol fumarate] 0, COc1ccc2cc([C@H](C)C(=O)O)ccc2c1 [Naproxen] 0, CNCC(O)c1ccc(O)c(O)c1 (stereo not drawn) [Racepinephrine HCl] 0, CCOc1ccc2ccccc2c1C(=O)N[C@@H]1C(=O)N2[C@@H]1SC(C)(C)[C@@H]2C(=O)O [Nafcillin sodium salt monohydrate] 0, CC1CS(=O)(=O)CCN1/N=C/c1ccc([N+](=O)[O-])o1 (stereo not drawn) [Nifurtimox] 0, O=P(O)(O)C(Cl)(Cl)P(=O)(O)O [Clodronate] 0, CCCCc1cc2ccccc2c(OCCN(C)C)n1 [Dimethisoquin hydrochloride] 0

Same assay, conditions: library: Spectrum; 2 uM; 4 weeks; BDNF 10 ng/ml + GDNF 10 ng/ml

Dopaminergic neuron differentiation score, inactive:
CC(=O)OCC(=O)[C@@]1(O)CC[C@H]2[C@@H]3CCC4=CC(=O)CC[C@]4(C)[C@@]3(F)[C@@H](O)C[C@@]21C 1, O=C(O)[C@H](O)[C@@](O)(Cc1ccc(O)cc1)C(=O)O 0, Cc1c(N)c(=O)n(-c2ccccc2)n1C 0, COc1cc(NS(C)(=O)=O)ccc1Nc1c2ccccc2nc2ccccc12 0, N=C(N)NC(=O)c1nc(Cl)c(N2CCCCCC2)nc1N 0, c1ccc2[nH]c(-c3cscn3)nc2c1 0, O=c1c2ccccc2oc2ccccc12 0, CC(=O)Oc1ccc2c(c1C(C)C)CCC1C(C)(C)CCC[C@]21C (stereo partly drawn) 0, O=C(CCCN1CC=C(n2c(=O)[nH]c3ccccc32)CC1)c1ccc(F)cc1 0, O=S(=O)(O)c1cc(I)c(O)c2ncccc12 0, COc1cc(CNC(=O)CCCC/C=C/C(C)C)ccc1O 0, CCCCOCCOCCOCc1cc2c(cc1CCC)OCO2 0, O=C(O)CN(CCN(CC(=O)O)CC(=O)O)CCN(CC(=O)O)CC(=O)O 0, O=C(O)CCNC(=O)c1ccc(/N=N/c2ccc(O)c(C(=O)O)c2)cc1 0, O=C(O)c1cc(O)c(O)c(O)c1 0, CC1(C)S[C@@H]2[C@H](NC(=O)[C@H](C(=O)O)c3ccsc3)C(=O)N2[C@H]1C(=O)O 0, CN1CCN(CCCN2c3ccccc3Sc3ccc(C(F)(F)F)cc32)CC1 1, O=C(O[C@@H]1Cc2c(O)cc(O)cc2O[C@@H]1c1cc(O)c(=O)c2c(O)c(O)cc([C@H]3Oc4cc(O)cc(O)c4C[C@H]3O)c2c1)c1cc(O)c(O)c(O)c1 0, CC(=O)OCC(=O)[C@H]1CC[C@H]2[C@@H]3CC=C4C[C@@H](O)CC[C@]4(C)[C@H]3CC[C@]12C 0, CO[C@H]1C[C@H](O[C@@H]2/C(C)=C/C[C@@H]3C[C@@H](C[C@]4(CC[C@H](C)[C@@H](C5CCCCC5)O4)O3)OC(=O)[C@@H]3C=C(C)/C(=N/O)[C@H]4OC/C(=C\C=C\[C@@H]2C)[C@]43O)O[C@@H](C)[C@@H]1O 0
